# Assay results published in the supplement of paper PMC12819154, “High-throughput peptide-centric local stability assay extends protein–ligand identification to membrane proteins, tissues and bacteria” (Nature Structural & Molecular Biology, 2025).
# Sequences of proteins named here, by UniProt entry; tags and fusion partners are left off. A change or cut given only in a name is not applied to a line headed by its entry.
# UniProt Q08117: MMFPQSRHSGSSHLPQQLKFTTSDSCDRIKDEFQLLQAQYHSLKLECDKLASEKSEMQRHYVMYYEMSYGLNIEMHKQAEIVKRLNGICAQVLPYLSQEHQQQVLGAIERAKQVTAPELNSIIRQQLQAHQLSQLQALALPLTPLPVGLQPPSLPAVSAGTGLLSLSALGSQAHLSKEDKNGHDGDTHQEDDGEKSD
# UniProt Q10570: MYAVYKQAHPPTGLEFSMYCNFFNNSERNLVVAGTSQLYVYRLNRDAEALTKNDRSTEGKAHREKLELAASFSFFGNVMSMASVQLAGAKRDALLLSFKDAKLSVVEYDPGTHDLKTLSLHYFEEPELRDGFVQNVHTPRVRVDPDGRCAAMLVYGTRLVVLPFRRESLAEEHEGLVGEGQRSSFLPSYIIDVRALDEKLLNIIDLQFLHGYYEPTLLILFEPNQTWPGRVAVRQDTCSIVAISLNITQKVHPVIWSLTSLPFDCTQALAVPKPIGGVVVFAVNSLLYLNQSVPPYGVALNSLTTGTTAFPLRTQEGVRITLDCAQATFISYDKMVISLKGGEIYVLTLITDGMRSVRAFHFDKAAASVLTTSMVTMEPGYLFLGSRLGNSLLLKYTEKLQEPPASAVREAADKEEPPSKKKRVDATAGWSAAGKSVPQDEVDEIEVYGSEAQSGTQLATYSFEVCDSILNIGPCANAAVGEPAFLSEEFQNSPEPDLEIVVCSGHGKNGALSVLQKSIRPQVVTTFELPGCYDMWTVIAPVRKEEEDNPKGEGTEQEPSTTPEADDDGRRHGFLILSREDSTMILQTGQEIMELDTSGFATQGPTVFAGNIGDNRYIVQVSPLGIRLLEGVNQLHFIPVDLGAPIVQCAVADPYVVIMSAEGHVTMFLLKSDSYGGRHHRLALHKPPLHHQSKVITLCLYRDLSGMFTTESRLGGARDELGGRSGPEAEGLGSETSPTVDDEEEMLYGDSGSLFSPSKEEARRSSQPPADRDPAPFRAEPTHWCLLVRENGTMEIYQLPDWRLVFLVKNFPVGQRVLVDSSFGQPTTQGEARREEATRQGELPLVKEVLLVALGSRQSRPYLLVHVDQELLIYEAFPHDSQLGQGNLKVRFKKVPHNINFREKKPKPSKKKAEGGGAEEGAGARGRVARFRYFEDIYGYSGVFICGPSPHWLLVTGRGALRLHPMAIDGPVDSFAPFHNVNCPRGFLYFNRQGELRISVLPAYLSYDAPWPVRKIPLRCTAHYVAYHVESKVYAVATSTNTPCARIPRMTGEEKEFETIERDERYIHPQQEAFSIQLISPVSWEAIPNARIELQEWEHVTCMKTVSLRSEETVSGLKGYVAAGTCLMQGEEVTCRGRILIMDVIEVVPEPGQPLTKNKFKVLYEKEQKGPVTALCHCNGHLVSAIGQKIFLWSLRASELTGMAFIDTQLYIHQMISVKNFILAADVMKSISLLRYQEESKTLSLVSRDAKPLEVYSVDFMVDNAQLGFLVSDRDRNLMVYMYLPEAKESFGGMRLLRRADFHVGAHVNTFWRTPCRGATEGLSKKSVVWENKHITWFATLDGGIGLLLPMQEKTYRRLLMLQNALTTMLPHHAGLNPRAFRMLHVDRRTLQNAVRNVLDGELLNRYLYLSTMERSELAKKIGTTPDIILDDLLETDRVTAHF
# UniProt Q12962, whole entry: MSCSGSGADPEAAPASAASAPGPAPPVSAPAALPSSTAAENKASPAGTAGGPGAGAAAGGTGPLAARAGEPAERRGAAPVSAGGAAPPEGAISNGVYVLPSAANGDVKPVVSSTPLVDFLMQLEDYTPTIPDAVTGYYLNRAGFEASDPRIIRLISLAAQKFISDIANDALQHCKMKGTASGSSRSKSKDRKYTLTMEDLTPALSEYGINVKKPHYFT
# UniProt Q02410: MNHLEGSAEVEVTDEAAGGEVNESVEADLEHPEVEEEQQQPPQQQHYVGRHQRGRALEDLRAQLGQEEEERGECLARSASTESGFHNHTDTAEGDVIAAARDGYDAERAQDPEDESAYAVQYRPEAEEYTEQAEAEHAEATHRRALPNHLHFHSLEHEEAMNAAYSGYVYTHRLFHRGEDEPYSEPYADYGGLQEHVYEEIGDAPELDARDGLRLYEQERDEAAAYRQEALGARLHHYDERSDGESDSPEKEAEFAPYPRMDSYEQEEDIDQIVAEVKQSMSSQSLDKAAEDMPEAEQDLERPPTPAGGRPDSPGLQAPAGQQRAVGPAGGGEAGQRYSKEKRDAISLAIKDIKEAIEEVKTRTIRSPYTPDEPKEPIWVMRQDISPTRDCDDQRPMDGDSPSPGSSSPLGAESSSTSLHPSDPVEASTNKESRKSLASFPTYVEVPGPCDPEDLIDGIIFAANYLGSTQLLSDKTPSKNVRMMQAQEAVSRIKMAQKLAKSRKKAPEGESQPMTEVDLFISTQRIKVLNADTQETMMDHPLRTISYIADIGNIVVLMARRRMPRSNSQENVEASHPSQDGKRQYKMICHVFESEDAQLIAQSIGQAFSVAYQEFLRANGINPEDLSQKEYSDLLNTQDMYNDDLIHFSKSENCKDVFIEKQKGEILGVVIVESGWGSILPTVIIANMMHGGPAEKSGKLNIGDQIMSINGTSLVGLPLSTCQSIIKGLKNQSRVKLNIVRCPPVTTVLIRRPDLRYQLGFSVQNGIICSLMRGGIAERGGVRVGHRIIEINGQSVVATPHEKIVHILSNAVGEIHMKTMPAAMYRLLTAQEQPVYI
# UniProt Q10471: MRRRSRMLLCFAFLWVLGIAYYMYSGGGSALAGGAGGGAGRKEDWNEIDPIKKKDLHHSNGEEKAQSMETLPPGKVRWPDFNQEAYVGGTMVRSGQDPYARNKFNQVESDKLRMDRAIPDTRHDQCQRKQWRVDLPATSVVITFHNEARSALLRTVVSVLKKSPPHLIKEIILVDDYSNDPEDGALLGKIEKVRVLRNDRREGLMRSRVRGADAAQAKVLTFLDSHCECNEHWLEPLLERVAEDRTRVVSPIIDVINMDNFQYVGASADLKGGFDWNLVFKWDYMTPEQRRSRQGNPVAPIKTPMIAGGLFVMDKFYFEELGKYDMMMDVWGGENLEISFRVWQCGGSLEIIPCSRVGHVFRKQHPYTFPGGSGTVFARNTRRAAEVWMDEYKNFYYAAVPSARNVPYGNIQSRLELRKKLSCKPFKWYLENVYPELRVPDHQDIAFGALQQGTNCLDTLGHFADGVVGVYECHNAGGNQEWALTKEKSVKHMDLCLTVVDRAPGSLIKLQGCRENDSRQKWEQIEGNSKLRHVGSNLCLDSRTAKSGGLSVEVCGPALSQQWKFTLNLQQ
# UniProt Q12905: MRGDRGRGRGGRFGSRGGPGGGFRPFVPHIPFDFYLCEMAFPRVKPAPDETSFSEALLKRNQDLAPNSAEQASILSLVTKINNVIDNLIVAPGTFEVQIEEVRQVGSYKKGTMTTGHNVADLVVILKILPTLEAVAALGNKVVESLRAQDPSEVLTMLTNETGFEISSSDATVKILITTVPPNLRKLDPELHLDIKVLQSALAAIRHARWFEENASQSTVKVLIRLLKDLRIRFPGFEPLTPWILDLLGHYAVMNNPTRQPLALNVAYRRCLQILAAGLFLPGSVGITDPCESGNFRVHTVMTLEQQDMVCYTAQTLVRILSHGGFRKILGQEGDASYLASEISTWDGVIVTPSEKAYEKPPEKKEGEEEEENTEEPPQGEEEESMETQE
# UniProt Q02880: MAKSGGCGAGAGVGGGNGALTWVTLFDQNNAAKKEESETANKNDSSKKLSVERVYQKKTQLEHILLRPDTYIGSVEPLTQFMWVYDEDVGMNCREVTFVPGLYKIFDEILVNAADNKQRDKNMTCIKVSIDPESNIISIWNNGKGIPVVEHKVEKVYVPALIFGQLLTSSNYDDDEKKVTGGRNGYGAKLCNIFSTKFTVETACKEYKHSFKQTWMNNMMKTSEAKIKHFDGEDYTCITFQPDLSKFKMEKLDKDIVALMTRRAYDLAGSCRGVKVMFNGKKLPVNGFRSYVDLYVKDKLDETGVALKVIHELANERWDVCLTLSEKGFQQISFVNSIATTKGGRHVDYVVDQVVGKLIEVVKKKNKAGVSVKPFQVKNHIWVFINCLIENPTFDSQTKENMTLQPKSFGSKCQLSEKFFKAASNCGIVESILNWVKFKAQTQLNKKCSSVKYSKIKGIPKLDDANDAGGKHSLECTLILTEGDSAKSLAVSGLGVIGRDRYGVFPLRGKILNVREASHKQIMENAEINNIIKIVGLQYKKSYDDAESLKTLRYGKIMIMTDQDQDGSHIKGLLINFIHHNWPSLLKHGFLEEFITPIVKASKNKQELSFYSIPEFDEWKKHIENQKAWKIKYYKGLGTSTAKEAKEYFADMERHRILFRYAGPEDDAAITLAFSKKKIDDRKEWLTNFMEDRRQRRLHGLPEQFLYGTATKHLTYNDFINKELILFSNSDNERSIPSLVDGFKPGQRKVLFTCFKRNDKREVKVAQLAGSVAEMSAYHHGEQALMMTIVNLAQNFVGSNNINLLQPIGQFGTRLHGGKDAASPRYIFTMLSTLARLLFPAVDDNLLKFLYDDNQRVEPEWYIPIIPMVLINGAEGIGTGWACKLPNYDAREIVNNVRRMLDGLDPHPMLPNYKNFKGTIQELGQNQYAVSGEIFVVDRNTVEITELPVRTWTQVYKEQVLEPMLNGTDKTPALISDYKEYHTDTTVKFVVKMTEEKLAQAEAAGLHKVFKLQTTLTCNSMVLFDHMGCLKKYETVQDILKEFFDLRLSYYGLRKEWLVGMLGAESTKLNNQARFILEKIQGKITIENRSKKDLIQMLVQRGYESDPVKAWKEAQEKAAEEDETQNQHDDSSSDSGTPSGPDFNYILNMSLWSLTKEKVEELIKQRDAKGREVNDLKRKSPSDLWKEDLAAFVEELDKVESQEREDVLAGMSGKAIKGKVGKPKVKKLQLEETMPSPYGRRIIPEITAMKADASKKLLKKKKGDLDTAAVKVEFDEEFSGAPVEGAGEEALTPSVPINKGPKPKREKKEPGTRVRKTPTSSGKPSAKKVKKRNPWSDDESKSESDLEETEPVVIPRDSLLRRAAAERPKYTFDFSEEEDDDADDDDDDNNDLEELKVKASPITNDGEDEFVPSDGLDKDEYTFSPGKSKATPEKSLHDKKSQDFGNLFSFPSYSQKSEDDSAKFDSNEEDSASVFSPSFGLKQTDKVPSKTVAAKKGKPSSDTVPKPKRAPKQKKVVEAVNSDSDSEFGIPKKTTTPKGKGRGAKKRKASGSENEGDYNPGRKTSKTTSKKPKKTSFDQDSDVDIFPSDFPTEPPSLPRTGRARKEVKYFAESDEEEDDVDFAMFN
# UniProt Q04741: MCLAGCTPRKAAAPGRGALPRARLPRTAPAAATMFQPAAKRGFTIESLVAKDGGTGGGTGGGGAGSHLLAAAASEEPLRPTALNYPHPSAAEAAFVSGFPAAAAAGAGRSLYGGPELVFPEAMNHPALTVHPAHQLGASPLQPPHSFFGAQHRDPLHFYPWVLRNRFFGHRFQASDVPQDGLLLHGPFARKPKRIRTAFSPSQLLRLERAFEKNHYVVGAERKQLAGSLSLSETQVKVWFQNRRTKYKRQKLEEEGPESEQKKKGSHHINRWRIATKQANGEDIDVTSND
# Some of the results follow. Most values lie at the level of the controls, where differences are scatter.
# Compound: Cc1nc(Nc2ncc(C(=O)Nc3c(C)cccc3Cl)s2)cc(N2CCN(CCO)CC2)n1 [dasatinib]
# Experiment: log2 fold change of tryptic peptide abundance, ligand vs vehicle (limited proteolysis) (log2 ratio); higher = more trypsin-susceptible (destabilized)
# Details: ligand concentration: 5 uM; sample: K562 cleared lysate
row,Target,log2 fold change
1,"UniProt Q08117 (peptide sequence: NGHDGDTHQEDDGEKSD, peptide start residue: 181)",0.18
2,"CPSF1 (peptide sequence: CAAMLVYGTR, peptide start residue: 149) (UniProt Q10570)",0.295
3,"TAF10 (peptide sequence: ASPAGTAGGPGAGAAAGGTGPLAAR, peptide start residue: 43) (UniProt Q12962)",0.193
4,"APBA1 (peptide sequence: MMQAQEAVSR, peptide start residue: 394) (UniProt Q02410)",-0.0233
5,"GALNT2 (peptide sequence: KEDWNEIDPIKK, peptide start residue: 42) (UniProt Q10471)",-0.355
6,"UniProt Q12905 (peptide sequence: AYEKPPEK, peptide start residue: 357)",-0.621
7,"TOP2B (peptide sequence: QTWMNNMMK, peptide start residue: 213) (UniProt Q02880)",0.637
8,"UniProt Q04741 (peptide sequence: NHYVVGAERK, peptide start residue: 214)",-0.142
